The entries are a selection whose mix differs from that of the whole data set. For part of these data: At the low end of the ranking the order means little. The list shows a part of the results. For part of these data: The exact form of the protein is not confirmed.

Sequences of proteins named here, by UniProt entry; tags and fusion partners are left off. A change or cut given only in a name is not applied to a line headed by its entry.
UniProt P32519: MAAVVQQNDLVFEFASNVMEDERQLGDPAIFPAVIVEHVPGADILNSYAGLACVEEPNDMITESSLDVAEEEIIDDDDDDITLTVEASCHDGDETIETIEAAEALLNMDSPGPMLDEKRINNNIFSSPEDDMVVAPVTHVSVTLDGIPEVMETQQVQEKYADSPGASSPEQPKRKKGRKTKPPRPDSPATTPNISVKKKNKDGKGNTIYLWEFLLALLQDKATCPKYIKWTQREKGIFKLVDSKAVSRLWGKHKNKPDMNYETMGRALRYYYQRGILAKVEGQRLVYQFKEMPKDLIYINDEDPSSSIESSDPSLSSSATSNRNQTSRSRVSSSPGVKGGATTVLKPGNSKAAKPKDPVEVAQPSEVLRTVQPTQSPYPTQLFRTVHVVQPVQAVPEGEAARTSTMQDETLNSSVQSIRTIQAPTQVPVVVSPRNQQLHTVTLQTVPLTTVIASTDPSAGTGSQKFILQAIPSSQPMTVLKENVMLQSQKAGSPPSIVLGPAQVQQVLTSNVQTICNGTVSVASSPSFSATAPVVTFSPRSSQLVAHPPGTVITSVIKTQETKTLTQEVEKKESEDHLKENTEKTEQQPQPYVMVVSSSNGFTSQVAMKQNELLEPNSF
UniProt P50549: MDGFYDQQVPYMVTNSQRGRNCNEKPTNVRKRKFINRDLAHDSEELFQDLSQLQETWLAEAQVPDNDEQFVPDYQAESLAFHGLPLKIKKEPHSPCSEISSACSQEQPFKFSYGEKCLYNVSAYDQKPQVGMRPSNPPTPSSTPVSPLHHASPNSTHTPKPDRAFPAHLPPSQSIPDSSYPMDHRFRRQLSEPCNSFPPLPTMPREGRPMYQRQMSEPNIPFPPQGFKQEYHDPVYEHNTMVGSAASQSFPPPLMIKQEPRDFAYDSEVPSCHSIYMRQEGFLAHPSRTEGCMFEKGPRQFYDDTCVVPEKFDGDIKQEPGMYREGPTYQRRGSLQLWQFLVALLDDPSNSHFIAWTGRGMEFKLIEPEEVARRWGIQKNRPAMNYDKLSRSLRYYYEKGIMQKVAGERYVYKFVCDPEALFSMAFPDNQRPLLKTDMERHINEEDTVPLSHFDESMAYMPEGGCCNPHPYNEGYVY

Assay in all cases: DAPPL (digital affinity profiling via proximity ligation, sequencing)
What all share (settings): 10 mM Tris-HCl pH 7.5, 50 mM NaCl, 1 mM DTT, 4% glycerol, room temperature, 30 min; GST-TFs on glutathione beads, 16-mer random dsDNA library, 0.1% …; high values mean tight binding; double strand, one strand shown; scale: fold enrichment (6-mer frequency, TF over GST control)

For one assay, the target named is T1, ERG (UniProt P11308).
T1 sequence: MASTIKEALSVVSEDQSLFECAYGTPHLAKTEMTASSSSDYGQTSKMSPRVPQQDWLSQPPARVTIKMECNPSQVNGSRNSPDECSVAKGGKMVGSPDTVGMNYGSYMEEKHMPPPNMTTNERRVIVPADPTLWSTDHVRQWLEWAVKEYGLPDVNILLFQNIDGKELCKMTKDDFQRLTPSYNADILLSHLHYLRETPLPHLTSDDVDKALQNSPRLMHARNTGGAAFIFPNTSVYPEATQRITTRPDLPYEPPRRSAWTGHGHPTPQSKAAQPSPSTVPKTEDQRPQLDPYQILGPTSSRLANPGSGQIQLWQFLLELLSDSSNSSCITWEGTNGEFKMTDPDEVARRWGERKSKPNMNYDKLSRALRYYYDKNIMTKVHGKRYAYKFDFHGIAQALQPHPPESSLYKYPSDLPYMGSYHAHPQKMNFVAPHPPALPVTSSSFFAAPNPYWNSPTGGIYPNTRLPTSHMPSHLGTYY

The next assay concerns the target ELF1 (UniProt P32519).
The target in another assay is T2, ELK4 (UniProt P28324-2).
T2 sequence: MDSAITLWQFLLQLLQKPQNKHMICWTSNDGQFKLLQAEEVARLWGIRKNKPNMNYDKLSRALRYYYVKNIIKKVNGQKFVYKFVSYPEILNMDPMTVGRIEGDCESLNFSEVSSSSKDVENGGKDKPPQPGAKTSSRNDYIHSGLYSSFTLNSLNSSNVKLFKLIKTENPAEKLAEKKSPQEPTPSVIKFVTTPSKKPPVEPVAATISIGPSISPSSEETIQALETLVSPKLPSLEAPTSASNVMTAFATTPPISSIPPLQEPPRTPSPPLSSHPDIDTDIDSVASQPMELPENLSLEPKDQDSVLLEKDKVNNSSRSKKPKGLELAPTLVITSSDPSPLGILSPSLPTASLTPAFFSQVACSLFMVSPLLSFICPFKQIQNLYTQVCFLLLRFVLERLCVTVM

Another assay addresses T3, ETV4 (UniProt P43268).
T3 sequence: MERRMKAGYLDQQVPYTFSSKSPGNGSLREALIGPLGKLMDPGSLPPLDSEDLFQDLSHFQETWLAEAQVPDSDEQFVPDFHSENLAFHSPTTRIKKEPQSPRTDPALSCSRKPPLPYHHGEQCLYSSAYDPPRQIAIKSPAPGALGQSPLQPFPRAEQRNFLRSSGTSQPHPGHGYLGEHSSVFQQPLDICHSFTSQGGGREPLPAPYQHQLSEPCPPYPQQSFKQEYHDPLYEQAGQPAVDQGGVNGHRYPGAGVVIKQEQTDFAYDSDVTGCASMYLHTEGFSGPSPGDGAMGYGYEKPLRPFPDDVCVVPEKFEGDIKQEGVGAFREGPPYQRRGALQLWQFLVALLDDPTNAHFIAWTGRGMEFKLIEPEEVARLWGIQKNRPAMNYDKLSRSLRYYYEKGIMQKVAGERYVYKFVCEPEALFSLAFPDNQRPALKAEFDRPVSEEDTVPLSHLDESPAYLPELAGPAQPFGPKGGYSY

The target in the next assay is ETV1 (UniProt P50549).
The next assay addresses T4, ERF (UniProt P50548).
T4 sequence: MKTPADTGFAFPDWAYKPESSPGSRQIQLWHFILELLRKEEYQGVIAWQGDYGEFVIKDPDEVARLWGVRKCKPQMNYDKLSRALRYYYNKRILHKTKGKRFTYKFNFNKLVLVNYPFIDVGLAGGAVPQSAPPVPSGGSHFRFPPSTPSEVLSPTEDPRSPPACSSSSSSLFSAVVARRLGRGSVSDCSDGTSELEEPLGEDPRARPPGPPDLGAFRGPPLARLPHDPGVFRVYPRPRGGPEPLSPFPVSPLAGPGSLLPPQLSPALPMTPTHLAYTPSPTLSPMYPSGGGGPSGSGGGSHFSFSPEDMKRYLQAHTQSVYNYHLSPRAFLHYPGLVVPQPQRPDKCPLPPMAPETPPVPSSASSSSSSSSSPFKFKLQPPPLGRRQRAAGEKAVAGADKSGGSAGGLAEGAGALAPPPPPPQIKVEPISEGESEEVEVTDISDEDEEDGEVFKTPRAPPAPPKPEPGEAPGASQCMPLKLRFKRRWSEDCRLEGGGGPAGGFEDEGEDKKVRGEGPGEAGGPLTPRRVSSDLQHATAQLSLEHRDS

Take GGACAA: the binding signal in the assay with ERG turned out to be 0.86; with ELF1 it was 0.824; with ELK4 it was 0.707; in the assay with ETV4 it was 0.845; in the assay with ETV1, 0.802; with ERF it was 0.92.

For CCGAGA, the binding signal with ERG worked out at 0.6; with ELF1, 0.64; with ELK4, 0.622; with ETV4, 0.628; with ETV1 it was 0.532; with ERF it was 0.607.

With GCCAAA, the binding signal with ERG was 0.881; in the assay with ELF1 it was 0.96; with ELK4, 0.87; with ETV4, 0.926; with ETV1, 0.859; with ERF, 0.869.

For AGCAGG, the binding signal was determined as 0.955 in the assay with ERG; 0.868 in the assay with ELF1; 0.93 in the assay with ELK4; 0.898 in the assay with ETV4; 0.938 with ETV1; 0.854 in the assay with ERF.

As for TAGAGT, the binding signal in the assay with ERG was 0.751; with ELF1 it was 0.75; in the assay with ELK4, 0.874; with ETV4, 0.74; with ETV1 it was 0.771; with ERF it was 0.795.

GGGAGT: the binding signal with ERG came out at 0.26; with ELF1, 0.228; with ELK4 it was 0.217; in the assay with ETV4, 0.218; with ETV1, 0.252; with ERF it was 0.24.

Regarding GACGTC, the binding signal in the assay with ERG worked out at 0.945; with ELF1, 0.827; with ELK4 it was 0.778; with ETV4 it was 0.842; with ETV1 it was 0.853; in the assay with ERF it was 0.896.

On to AGGTCA, for which the binding signal came to 0.709 with ERG; 0.709 with ELF1; 0.809 in the assay with ELK4; 0.724 in the assay with ETV4; 0.735 in the assay with ETV1; 0.77 in the assay with ERF.

Take CCGAGG: the binding signal with ERG is 0.764; with ELF1, 0.675; in the assay with ELK4, 0.709; with ETV4 it was 0.736; with ETV1 it was 0.77; with ERF, 0.767.

In the case of GAGTCA, the binding signal worked out at 0.296 in the assay with ERG; 0.274 with ELF1; 0.264 with ELK4; 0.249 in the assay with ETV4; 0.246 with ETV1; 0.258 with ERF.

On to GTCGAA, for which the binding signal with ERG was 0.634; in the assay with ELF1, 0.631; with ELK4, 0.717; in the assay with ETV4, 0.618; in the assay with ETV1 it was 0.674; with ERF it was 0.626.

Turning to GGACGA, the binding signal amounted to 0.637 in the assay with ERG; 0.629 with ELF1; 0.573 with ELK4; 0.643 with ETV4; 0.614 in the assay with ETV1; 0.687 with ERF.

Regarding GGAGAG, the binding signal in the assay with ERG stood at 0.277; in the assay with ELF1, 0.26; with ELK4 it was 0.279; in the assay with ETV4, 0.251; with ETV1, 0.279; with ERF it was 0.289.

As to ACAGTA, the binding signal was 0.847 in the assay with ERG; 0.922 with ELF1; 0.894 with ELK4; 0.948 with ETV4; 0.905 in the assay with ETV1; 0.854 with ERF.

For the sequence GTAGGC, the binding signal with ERG came to 0.682; in the assay with ELF1, 0.712; with ELK4, 0.641; in the assay with ETV4, 0.676; with ETV1, 0.722; in the assay with ERF it was 0.696.

As to ATTGGA, the binding signal came out at 0.917 with ERG; 0.913 with ELF1; 0.835 with ELK4; 0.937 with ETV4; 0.872 with ETV1; 0.911 in the assay with ERF.

Take ATGTCG: the binding signal in the assay with ERG was determined as 0.674; with ELF1, 0.66; with ELK4, 0.671; with ETV4, 0.627; with ETV1, 0.569; in the assay with ERF, 0.646.

Take GTCAAG: the binding signal was 0.814 with ERG; 0.771 in the assay with ELF1; 0.837 with ELK4; 0.727 with ETV4; 0.77 in the assay with ETV1; 0.812 with ERF.

Regarding TAGCCG, the binding signal in the assay with ERG was 0.838; with ELF1, 0.909; in the assay with ELK4 it was 0.89; with ETV4, 0.866; with ETV1 it was 0.855; in the assay with ERF, 0.896.

For the sequence GGCGAT, the binding signal stood at 0.731 with ERG; 0.823 with ELF1; 0.844 with ELK4; 0.753 with ETV4; 0.892 in the assay with ETV1; 0.78 with ERF.

Take CGGGAA: the binding signal worked out at 0.762 with ERG; 0.679 in the assay with ELF1; 0.75 with ELK4; 0.74 with ETV4; 0.751 with ETV1; 0.661 in the assay with ERF.

On to GAACGA, for which the binding signal with ERG is 0.673; with ELF1, 0.823; with ELK4 it was 0.715; with ETV4 it was 0.739; in the assay with ETV1, 0.778; with ERF, 0.791.

As to TCGGTT, the binding signal with ERG was found to be 0.777; with ELF1, 0.862; with ELK4 it was 0.926; with ETV4, 0.844; with ETV1, 0.882; with ERF, 0.839.

GGGGAC: the binding signal was determined as 0.476 with ERG; 0.466 in the assay with ELF1; 0.436 with ELK4; 0.483 with ETV4; 0.461 with ETV1; 0.475 with ERF.

As to AGAGGG, the binding signal with ERG was determined as 0.741; with ELF1 it was 0.72; in the assay with ELK4, 0.652; with ETV4, 0.712; with ETV1, 0.73; in the assay with ERF it was 0.72.

GAACCG: the binding signal with ERG stood at 0.77; with ELF1 it was 0.691; with ELK4, 0.69; with ETV4 it was 0.698; with ETV1 it was 0.748; in the assay with ERF it was 0.728.

For the sequence GGTGTA, the binding signal with ERG was determined as 0.87; with ELF1 it was 0.8; with ELK4, 0.87; with ETV4, 0.844; with ETV1, 0.834; with ERF, 0.891.

As for AGACAG, the binding signal with ERG came out at 0.533; with ELF1 it was 0.509; with ELK4, 0.521; with ETV4 it was 0.468; in the assay with ETV1, 0.496; in the assay with ERF it was 0.499.

Regarding GGTGGC, the binding signal was found to be 0.77 with ERG; 0.686 in the assay with ELF1; 0.867 in the assay with ELK4; 0.723 with ETV4; 0.7 in the assay with ETV1; 0.732 in the assay with ERF.

Consider CGGAGA, for which the binding signal in the assay with ERG came to 0.232; with ELF1, 0.204; with ELK4 it was 0.222; with ETV4, 0.203; with ETV1, 0.215; with ERF it was 0.214.

For the origin of these results see paper PMC7862700.
